The record followed here is PubChem BioAssay AID248 (DTP/NCI, 2004).

The list shows only some results of the screen, not a fair sample: it is rich in T/C values a quarter to a half above the control, in often repeated tests (any T/C) and in doses without a T/C. Other doses and runs of a compound stand elsewhere. T/C is the treated group as % of the vehicle group. Some entries give survivors of the animals treated and no T/C: the source holds a T/C of zero for them, seemingly a mark for toxic or unscored doses. Some doses without a T/C left all or most animals alive at the check, yet need not have been tolerated: survival well below the control is almost never listed, so the zero probably covers shortened survival too. Survivors were counted at the toxicity check, usually on the fifth day, unless a day is given; later deaths do not show. Schedules are NCI's codes, taken here to give the interval after Q, in days (D) or hours (H), and the number of doses after X. Some doses were run more than once; the results are listed from low to high. Some schedule codes hold Z or #, which are not explained here. Some molecules as drawn cover several salts, stereoisomers or complexes of the source; a dose is that of the sample tested. For survival time, this PubChem deposit counts one and a half times the control or more as active, and values a quarter to a half above the control carry no call in these data; other NCI protocols may use other cut-offs.

The subject of this assay is L1210 leukemia ip in BDF1 mice, survival T/C. As to the kind of experiment: NCI In Vivo Anticancer Drug Screen. Data for tumor model L1210 Leukemia (intraperitoneal) in B6D2F1 (BDF1) mice. The note with it: T/C endpoint: mean survival time, higher T/C = longer survival.
Where [1] appears, read: dose: 6.25 mg/kg/injection, schedule: Q01DX009 (ip), vehicle: saline.
The mark [2] stands for this setting: dose: 10.0 mg/kg/injection, schedule: Q01DX001 (ip), vehicle: saline.
Where [3] appears, read: dose: 20.0 mg/kg/injection, schedule: Q01DX001 (ip), vehicle: saline.
Setting [4] is: dose: 40.0 mg/kg/injection, schedule: Q01DX001 (ip), vehicle: saline.
[5] abbreviates: dose: 80.0 mg/kg/injection, schedule: Q01DX001 (ip), vehicle: saline.
Where [6] appears, read: dose: 100.0 mg/kg/injection, schedule: Q01DX009 (ip), vehicle: saline.
Setting [7] is: dose: 200.0 mg/kg/injection, schedule: Q04DX003 (ip), vehicle: saline.
Where [8] appears, read: dose: 400.0 mg/kg/injection, schedule: Q04DX003 (ip), vehicle: saline.
[9] abbreviates: dose: 400.0 mg/kg/injection, schedule: Q04DX003 (ip), vehicle: saline with Tween-80.
The mark [10] stands for this setting: dose: 200.0 mg/kg/injection, schedule: Q04DX003 (ip), vehicle: saline with Tween-80.
The mark [11] stands for this setting: dose: 300.0 mg/kg/injection, schedule: Q01DX001 (ip), vehicle: saline.
Setting [12] is: dose: 100.0 mg/kg/injection, schedule: Q04DX002 (ip), vehicle: Klucel (hydroxypropylcellulose) (HPC).

For `COc1ccc2c(=O)c(C)c(-c3ccccc3)oc2c1CN(C)C`, the survivor count by setting is: under setting [1], 0 of 6; (dose: 6.25 mg/kg/injection, schedule: Q04DX003 (ip), vehicle: saline) 0 of 6; under setting [2], 0 of 6; (dose: 12.5 mg/kg/injection, schedule: Q01DX009 (ip), vehicle: saline) 0 of 6; (dose: 12.5 mg/kg/injection, schedule: Q04DX003 (ip), vehicle: saline) 1 of 6; under setting [3], 0 of 6. Besides, the survivor count by setting is: (dose: 25.0 mg/kg/injection, schedule: Q01DX009 (ip), vehicle: saline) 0 of 6; (dose: 25.0 mg/kg/injection, schedule: Q04DX003 (ip), vehicle: saline) 0 of 4; under setting [4], 0 of 6; (dose: 50.0 mg/kg/injection, schedule: Q01DX009 (ip), vehicle: saline) 0 of 6; (dose: 50.0 mg/kg/injection, schedule: Q04DX003 (ip), vehicle: saline) 0 of 4; under setting [5], 0 of 6. Besides, the survivor count reads like this: (dose: 100.0 mg/kg/injection, schedule: Q01DX001 (ip), vehicle: saline) 0 of 6; under setting [6], 0 of 6; (dose: 100.0 mg/kg/injection, schedule: Q04DX003 (ip), vehicle: saline) 0 of 4; (dose: 200.0 mg/kg/injection, schedule: Q01DX001 (ip), vehicle: saline) 0 of 6; under setting [7], 0 of 4; (dose: 400.0 mg/kg/injection, schedule: Q01DX001 (ip), vehicle: saline) 0 of 6. The survivor count under setting [8] is 0 of 4.

Take `NNCCc1ccccc1`: the survivor count under setting [6] is on record as 0 of 6, the survivor count under setting [7] is reported as 2 of 4 and the survivor count under setting [8] is 0 of 4.

On to `Cc1cc(C(C)(C)C)c(SC(=O)N(C)C)c(C(C)(C)C)c1`, for which the survivor count under setting [9] is reported as 5 of 6.

In the case of `CCC[CH2][Sn]([Br])([CH2]CCC)[CH2]CCC`, the survivor count (dose: 25.0 mg/kg/injection, schedule: Q01DX009 (ip), vehicle: carboxymethylcellulose (CMC)) is 0 of 6; the survivor count (dose: 25.0 mg/kg/injection, schedule: Q04DX003 (ip), vehicle: carboxymethylcellulose (CMC)) is given as 1 of 6; the survivor count (dose: 50.0 mg/kg/injection, schedule: Q04DX002 (ip), vehicle: carboxymethylcellulose (CMC)) was 0 of 6 and 1 of 3.

As to `CN1CCCC1CCCl` (configuration not stated), the survivor count is reported as 2 of 6 (dose: 115.0 mg/kg/injection, schedule: Q04DX003 (ip), vehicle: saline) and 0 of 6 (dose: 170.0 mg/kg/injection, schedule: Q04DX003 (ip), vehicle: saline).

With `FC(F)(F)C1=N/C(=C2\N=C(C(F)(F)F)N=C2Cl)C(Cl)=N1`, the survivor count is on record as 1 of 6 (dose: 100.0 mg/kg/injection, schedule: Q01DX009 (ip), vehicle: saline with Tween-80); 0 of 6 (dose: 200.0 mg/kg/injection, schedule: Q01DX009 (ip), vehicle: saline with Tween-80); 0 of 6 (dose: 400.0 mg/kg/injection, schedule: Q01DX009 (ip), vehicle: saline with Tween-80).

For `COC(=O)c1ccccc1N1C(=O)C=CC1=O`, the survivor count was 4 of 6 (dose: 100.0 mg/kg/injection, schedule: Q04DX003 (ip), vehicle: saline with Tween-80); 4 of 6 under setting [10]; 1 of 6 under setting [9].

Turning to `OC(C#CC(O)c1ccccc1)c1ccccc1` (configuration not stated), the survivor count (dose: 400.0 mg/kg/injection, schedule: Q01DX009 (ip), vehicle: saline) was 3 of 6.

`CC[P+](C)(CC)c1cccc(OC(=O)NC)c1`: the survivor count reads like this: (dose: 0.5 mg/kg/injection, schedule: Q01DX001 (ip), vehicle: saline) 0 of 6; (dose: 1.0 mg/kg/injection, schedule: Q01DX001 (ip), vehicle: saline) 0 of 6; (dose: 2.0 mg/kg/injection, schedule: Q01DX001 (ip), vehicle: saline) 0 of 6; (dose: 4.0 mg/kg/injection, schedule: Q01DX001 (ip), vehicle: saline) 0 of 6; (dose: 5.0 mg/kg/injection, schedule: Q01DX001 (ip), vehicle: saline) 0 of 6; (dose: 8.0 mg/kg/injection, schedule: Q01DX001 (ip), vehicle: saline) 0 of 6. Further, the survivor count is recorded as 0 of 6 under setting [2]; 0 of 6 under setting [3]; 0 of 6 under setting [4]; 0 of 6 (dose: 75.0 mg/kg/injection, schedule: Q01DX001 (ip), vehicle: saline); 0 of 6 under setting [5]; 0 of 6 (dose: 150.0 mg/kg/injection, schedule: Q01DX001 (ip), vehicle: saline). The survivor count under setting [11] is given as 0 of 6.

`CCC[CH2][Sn]([C]#[C][Sn]([CH2]CCC)([CH2]CCC)[CH2]CCC)([CH2]CCC)[CH2]CCC`: the survivor count is 6 of 6 (dose: 3.12 mg/kg/injection, schedule: Q01DX009 (ip), vehicle: saline); 3 of 6 under setting [1]; 2 of 6 (dose: 12.5 mg/kg/injection, schedule: Q01DX009 (ip), vehicle: Klucel (hydroxypropylcellulose) (HPC)); 4 of 6 (dose: 25.0 mg/kg/injection, schedule: Q01DX009 (ip), vehicle: Klucel (hydroxypropylcellulose) (HPC)); 1 of 3 (dose: 50.0 mg/kg/injection, schedule: Q04DX002 (ip), vehicle: saline); 1 of 3 and 3 of 3 (dose: 100.0 mg/kg/injection, schedule: Q04DX002 (ip), vehicle: saline). For the same compound, the survivor count was 1 of 3 (dose: 200.0 mg/kg/injection, schedule: Q04DX002 (ip), vehicle: saline) and 1 of 3 (dose: 400.0 mg/kg/injection, schedule: Q04DX002 (ip), vehicle: saline).

Regarding `CCCCNC(=S)NNC(=O)c1ccncc1`, the survivor count under setting [12] is 3 of 3.

With `CC(C)(C)CC(C)(C)c1ccc(Oc2ccc([N+](=O)[O-])cc2S(=O)(=O)O)cc1`, the survivor count by setting is: under setting [10], 0 of 6; under setting [9], 0 of 6.

As for `CC(=O)Oc1ccc(/C=C/C(=O)O)cc1OC(C)=O`, the survivor count (dose: 100.0 mg/kg/injection, schedule: Q04DX002 (ip), vehicle: saline with Tween-80) was 3 of 3.

With `O=C(Nc1ccc(N=C(c2ccccc2)N2CCOCC2)cc1)c1ccc(C(=O)Nc2ccc(N=C(c3ccccc3)N3CCOCC3)cc2)cc1`, where the note is “dose: 500.0 mg/kg/injection, schedule: Q01DX Z (ip), vehicle: carboxymethylcellulose (CMC)”, the survivor count is 6 of 6.

Turning to `O=[N+]([O-])c1sc2ccccc2c1O`, for the setting “dose: 50.0 mg/kg/injection, schedule: Q01DX009 (ip), vehicle: saline with Tween-80”, the survivor count is on record as 5 of 6.

`NC(=O)CCl`: the survivor count (dose: 200.0 mg/kg/injection, schedule: Q04DX003 (ip), vehicle: Klucel (hydroxypropylcellulose) (HPC)) is on record as 0 of 6 and the survivor count (dose: 400.0 mg/kg/injection, schedule: Q04DX003 (ip), vehicle: Klucel (hydroxypropylcellulose) (HPC)) is given as 0 of 6.

Turning to `OCCN1CCN(CCCN2c3ccccc3Sc3ccc(Cl)cc32)CC1`, the T/C under setting [12] is 125 % of control. Besides, the survivor count (dose: 400.0 mg/kg/injection, schedule: Q04DX002 (ip), vehicle: Klucel (hydroxypropylcellulose) (HPC)) was 0 of 3.

Consider `CCOC(=O)c1ccc2ccccc2n1`, for which the survivor count under setting [11] was 2 of 6.
